Assay [1] has as its target T1, SREBP1_HUMAN (human) (UniProt P36956).
T1 sequence (looked up): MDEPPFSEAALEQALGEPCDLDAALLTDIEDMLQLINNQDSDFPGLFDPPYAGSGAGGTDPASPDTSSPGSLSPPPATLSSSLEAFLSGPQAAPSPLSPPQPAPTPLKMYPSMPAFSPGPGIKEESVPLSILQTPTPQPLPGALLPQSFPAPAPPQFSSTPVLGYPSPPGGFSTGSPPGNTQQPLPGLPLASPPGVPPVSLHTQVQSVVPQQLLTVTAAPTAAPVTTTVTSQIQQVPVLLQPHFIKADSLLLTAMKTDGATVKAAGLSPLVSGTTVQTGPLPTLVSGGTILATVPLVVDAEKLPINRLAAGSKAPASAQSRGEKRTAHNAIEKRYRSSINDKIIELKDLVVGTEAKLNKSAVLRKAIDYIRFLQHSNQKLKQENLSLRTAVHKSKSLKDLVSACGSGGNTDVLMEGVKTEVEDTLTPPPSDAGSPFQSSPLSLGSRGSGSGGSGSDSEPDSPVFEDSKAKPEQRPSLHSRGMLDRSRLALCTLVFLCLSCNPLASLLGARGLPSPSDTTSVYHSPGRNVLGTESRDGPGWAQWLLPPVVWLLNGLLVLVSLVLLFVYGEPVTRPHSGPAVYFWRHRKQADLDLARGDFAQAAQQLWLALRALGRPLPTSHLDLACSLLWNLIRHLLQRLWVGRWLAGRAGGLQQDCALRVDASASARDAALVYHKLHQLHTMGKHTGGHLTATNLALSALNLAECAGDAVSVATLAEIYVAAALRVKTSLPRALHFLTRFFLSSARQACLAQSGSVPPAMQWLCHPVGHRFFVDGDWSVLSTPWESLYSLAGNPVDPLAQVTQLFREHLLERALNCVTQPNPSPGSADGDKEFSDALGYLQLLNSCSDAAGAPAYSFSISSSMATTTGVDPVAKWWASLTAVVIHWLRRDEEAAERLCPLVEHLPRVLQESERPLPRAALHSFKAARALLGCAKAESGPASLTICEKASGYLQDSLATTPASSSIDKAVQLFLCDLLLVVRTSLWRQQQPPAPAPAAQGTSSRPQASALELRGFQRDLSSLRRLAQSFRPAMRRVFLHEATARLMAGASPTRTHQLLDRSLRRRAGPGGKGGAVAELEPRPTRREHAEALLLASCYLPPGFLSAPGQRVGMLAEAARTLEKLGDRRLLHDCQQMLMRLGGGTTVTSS
In words: co-immunoprecipitation with V5-tagged SPTBN1 from stressed HEK293T cells, mass spectrometry.

Chains of the proteins cited; added tags and fusions are not shown.
UniProt Q01082: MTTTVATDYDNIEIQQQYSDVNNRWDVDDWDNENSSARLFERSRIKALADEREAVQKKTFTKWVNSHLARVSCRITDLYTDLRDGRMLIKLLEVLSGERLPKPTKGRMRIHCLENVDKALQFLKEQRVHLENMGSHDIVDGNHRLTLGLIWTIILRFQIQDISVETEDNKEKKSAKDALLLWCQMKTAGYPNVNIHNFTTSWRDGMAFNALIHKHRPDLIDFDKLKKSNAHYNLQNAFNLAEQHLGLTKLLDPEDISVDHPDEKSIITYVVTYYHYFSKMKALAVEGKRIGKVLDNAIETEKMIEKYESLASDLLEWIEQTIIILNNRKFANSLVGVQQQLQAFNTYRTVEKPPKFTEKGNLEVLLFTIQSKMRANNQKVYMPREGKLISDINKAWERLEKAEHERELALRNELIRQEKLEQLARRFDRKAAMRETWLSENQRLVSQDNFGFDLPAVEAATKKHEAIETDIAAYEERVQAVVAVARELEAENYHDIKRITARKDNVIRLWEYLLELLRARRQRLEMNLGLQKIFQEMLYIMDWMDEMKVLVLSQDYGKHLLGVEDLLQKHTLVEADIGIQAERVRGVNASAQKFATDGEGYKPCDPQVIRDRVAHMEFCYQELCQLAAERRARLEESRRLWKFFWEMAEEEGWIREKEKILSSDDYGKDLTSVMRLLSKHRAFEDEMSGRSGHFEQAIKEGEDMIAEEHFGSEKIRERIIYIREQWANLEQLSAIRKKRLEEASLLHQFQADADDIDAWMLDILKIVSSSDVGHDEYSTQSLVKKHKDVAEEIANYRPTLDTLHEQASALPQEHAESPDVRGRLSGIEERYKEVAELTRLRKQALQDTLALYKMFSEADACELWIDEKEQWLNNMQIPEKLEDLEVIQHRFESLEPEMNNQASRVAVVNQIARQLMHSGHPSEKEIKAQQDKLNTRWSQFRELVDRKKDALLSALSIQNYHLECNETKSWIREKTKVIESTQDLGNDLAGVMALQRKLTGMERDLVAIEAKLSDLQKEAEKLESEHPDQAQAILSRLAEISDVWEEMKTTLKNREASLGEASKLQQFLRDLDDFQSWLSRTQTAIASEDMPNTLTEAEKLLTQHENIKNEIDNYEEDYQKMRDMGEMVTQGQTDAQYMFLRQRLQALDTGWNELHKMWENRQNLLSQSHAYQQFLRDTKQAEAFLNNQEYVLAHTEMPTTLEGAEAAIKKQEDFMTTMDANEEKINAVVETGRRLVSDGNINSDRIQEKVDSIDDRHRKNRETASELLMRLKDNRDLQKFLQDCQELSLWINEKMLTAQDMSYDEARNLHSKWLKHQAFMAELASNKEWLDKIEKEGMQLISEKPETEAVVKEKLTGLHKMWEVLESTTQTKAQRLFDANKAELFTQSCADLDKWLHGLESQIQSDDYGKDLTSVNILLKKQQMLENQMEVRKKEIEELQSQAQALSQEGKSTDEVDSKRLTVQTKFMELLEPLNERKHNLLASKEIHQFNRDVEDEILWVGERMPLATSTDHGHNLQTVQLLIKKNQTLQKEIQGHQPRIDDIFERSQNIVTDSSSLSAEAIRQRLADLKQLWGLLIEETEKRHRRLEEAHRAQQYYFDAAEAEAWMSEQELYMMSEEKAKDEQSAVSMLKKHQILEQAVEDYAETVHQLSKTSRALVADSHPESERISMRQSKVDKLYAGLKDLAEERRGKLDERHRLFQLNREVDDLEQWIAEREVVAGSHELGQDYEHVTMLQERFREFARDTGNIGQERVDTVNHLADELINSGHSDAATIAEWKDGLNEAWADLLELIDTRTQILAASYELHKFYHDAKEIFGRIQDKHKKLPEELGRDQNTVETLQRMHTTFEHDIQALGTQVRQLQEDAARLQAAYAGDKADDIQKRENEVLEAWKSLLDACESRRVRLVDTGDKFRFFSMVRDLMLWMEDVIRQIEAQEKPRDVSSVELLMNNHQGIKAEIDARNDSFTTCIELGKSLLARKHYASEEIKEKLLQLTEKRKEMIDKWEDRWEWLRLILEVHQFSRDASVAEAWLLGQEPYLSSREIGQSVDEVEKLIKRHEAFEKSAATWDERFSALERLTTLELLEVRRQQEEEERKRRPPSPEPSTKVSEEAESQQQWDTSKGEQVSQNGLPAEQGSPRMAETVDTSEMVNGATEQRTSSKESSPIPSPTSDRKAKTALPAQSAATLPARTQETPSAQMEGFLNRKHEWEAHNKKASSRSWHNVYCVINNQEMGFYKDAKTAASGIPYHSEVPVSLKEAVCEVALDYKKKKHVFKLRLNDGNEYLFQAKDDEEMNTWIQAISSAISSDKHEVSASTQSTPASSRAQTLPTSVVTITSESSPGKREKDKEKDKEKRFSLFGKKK

Assay [2] deals with T1, SREBP1_HUMAN (human). Kind of assay: mass spectrometry of Sptbn1 pull down in HEK293T cells.

No constants are given. Whether binding was seen depends on the method and setting. In cells and extracts the contact can be indirect. Here binding means that the protein was enriched with, or labelled near, the bait; the list need not be complete.

On to “full-length V5-tagged SPTBN1 (from UniProt Q01082 1-2364)”, for which the binding result with SREBP1_HUMAN (human) [1] and with SREBP1_HUMAN (human) [2] was “binds” in each case.
